In paper doi:10.1101/2020.11.02.365890:
Where two headings read alike, the source gives them in different places. No constants are given. Whether binding was seen depends on the method and setting. For part of these data: Binding seen in cells or lysates may run through a third protein. Some binding calls cover weakened binding; strength is not graded here.

Sequences of proteins named here, by UniProt entry; tags and fusion partners are left off. Residues count along the entry.
UniProt Q04206: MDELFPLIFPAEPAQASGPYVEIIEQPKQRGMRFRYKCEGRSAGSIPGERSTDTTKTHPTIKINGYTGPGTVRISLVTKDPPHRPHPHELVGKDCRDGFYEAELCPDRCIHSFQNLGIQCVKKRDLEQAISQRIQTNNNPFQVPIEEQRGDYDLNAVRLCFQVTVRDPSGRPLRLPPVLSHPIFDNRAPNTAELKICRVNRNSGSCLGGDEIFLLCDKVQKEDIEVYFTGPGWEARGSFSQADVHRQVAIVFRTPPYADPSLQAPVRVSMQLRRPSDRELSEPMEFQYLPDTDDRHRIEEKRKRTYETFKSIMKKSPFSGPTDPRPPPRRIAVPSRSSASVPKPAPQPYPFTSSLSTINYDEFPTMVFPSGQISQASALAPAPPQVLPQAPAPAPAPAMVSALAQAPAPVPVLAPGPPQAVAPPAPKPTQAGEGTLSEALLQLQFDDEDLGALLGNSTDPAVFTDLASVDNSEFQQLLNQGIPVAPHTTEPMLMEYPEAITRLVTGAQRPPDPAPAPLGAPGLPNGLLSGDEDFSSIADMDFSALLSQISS
UniProt Q9Z1E3: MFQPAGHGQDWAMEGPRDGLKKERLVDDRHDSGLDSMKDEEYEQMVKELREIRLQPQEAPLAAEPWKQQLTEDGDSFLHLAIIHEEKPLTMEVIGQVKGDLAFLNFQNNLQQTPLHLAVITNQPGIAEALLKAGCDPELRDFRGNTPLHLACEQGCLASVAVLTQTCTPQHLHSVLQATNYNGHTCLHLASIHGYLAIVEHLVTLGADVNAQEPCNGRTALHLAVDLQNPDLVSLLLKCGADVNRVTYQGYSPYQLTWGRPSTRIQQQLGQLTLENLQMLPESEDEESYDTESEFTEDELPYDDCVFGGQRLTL
UniProt P19838, residues 1-433: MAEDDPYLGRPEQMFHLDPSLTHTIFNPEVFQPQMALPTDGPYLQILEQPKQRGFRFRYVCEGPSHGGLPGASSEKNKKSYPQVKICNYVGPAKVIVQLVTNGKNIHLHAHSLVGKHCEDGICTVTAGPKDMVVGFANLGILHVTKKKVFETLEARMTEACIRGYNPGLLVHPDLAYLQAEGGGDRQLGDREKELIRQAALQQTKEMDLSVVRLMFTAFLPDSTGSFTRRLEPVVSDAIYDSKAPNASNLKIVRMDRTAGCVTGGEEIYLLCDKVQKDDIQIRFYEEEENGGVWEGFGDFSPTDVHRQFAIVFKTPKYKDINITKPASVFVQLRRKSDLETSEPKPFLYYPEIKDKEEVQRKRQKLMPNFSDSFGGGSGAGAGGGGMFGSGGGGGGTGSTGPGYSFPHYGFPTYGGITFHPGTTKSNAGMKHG

What was measured:
[1] = biological target: RelA (mouse (endogenous in MEFs and IECs)) (UniProt Q04207); assay: co-IP
[2] = biological target: RelA (human) (human (endogenous in colon biopsies)) (UniProt Q04206); assay: native gel or EMSA
[3] = biological target: T1, RelA (mouse (endogenous in MEFs and IECs)), Q04207; assay: co-IP; conditions: remark: other sources report otherwise
T1 chain: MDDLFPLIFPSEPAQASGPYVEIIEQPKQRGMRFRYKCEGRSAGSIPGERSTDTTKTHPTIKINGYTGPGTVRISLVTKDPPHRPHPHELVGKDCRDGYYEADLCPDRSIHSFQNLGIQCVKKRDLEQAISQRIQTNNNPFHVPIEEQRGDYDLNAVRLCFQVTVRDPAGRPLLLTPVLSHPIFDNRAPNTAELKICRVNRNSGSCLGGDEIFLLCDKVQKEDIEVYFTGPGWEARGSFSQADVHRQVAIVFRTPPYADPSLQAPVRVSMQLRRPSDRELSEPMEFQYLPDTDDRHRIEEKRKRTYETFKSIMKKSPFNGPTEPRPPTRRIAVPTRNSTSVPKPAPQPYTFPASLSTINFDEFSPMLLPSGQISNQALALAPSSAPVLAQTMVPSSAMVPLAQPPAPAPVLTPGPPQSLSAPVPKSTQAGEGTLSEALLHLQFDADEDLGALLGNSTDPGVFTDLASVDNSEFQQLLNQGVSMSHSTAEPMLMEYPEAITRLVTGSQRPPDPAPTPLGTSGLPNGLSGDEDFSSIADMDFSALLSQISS

[4] = biological target: T1, RelA (mouse (endogenous in MEFs and …)); assay: native gel or EMSA; conditions: remark: other sources report otherwise
[5] = biological target: RelA (mouse (endogenous in MEFs and IECs)) (UniProt Q04207); assay: native gel or EMSA
[6] = biological target: RelA (human) (human (endogenous in colon biopsies)) (UniProt Q04206); assay: native gel or EMSA; remark: listed apart in the source

p105 (from UniProt P25799-1)
binding [1]: binds

IκBα (from UniProt Q9Z1E3 1-314)
binding [1]: binds

p50 (human) (from UniProt P19838)
binding [2]: binds

B1: p50, P25799 (protein)
chain: MADDDPYGTGQMFHLNTALTHSIFNAELYSPEIPLSTDGPYLQILEQPKQRGFRFRYVCEGPSHGGLPGASSEKNKKSYPQVKICNYVGPAKVIVQLVTNGKNIHLHAHSLVGKHCEDGVCTVTAGPKDMVVGFANLGILHVTKKKVFETLEARMTEACIRGYNPGLLVHSDLAYLQAEGGGDRQLTDREKEIIRQAAVQQTKEMDLSVVRLMFTAFLPDSTGSFTRRLEPVVSDAIYDSKAPNASNLKIVRMDRTAGCVTGGEEIYLLCDKVQKDDIQIRFYEEEENGGVWEGFGDFSPTDVHRQFAIVFKTPKYKDVNITKPASVFVQLRRKSDLETSEPKPFLYYPEIKDKEEVQRKRQKLMPNFSDSFGGGSGAGAGGGGMFGSGGGGGSTGSPGPGYGYSNYGFPPYGGITFHPGVTKSNAGVTHG
binding [3]: binds | binding [4]: binds

B2: p52 (protein, UniProt Q9WTK5)
chain: MDNCYDPGLDGIPEYDDFEFSPSIVEPKDPAPETADGPYLVIVEQPKQRGFRFRYGCEGPSHGGLPGASSEKGRKTYPTVKICNYEGPAKIEVDLVTHSDPPRAHAHSLVGKQCSELGVCAVSVGPKDMTAQFNNLGVLHVTKKNMMEIMIQKLQRQRLRSKPQGLTEAERRELEQEAKELKKVMDLSIVRLRFSAFLRASDGSFSLPLKPVISQPIHDSKSPGASNLKISRMDKTAGSVRGGDEVYLLCDKVQKDDIEVRFYEDDENGWQAFGDFSPTDVHKQYAIVFRTPPYHKMKIERPVTVFLQLKRKRGGDVSDSKQFTYYPLVEDKEEVQRKRRKALPTFSQPFGGGSHMGGGSGGSAGGYGGAGGGGSLGFFSSSLAYNPYQSGAAPMGCYPGGGGGAQMAGSRRDTDAGEGAEEPRTPPEAPQGEPQALDTLQRAREYNARLFGLA
binding [1]: binds | binding [5]: binds

B3: p100 (protein, UniProt Q9WTK5)
chain: MDNCYDPGLDGIPEYDDFEFSPSIVEPKDPAPETADGPYLVIVEQPKQRGFRFRYGCEGPSHGGLPGASSEKGRKTYPTVKICNYEGPAKIEVDLVTHSDPPRAHAHSLVGKQCSELGVCAVSVGPKDMTAQFNNLGVLHVTKKNMMEIMIQKLQRQRLRSKPQGLTEAERRELEQEAKELKKVMDLSIVRLRFSAFLRASDGSFSLPLKPVISQPIHDSKSPGASNLKISRMDKTAGSVRGGDEVYLLCDKVQKDDIEVRFYEDDENGWQAFGDFSPTDVHKQYAIVFRTPPYHKMKIERPVTVFLQLKRKRGGDVSDSKQFTYYPLVEDKEEVQRKRRKALPTFSQPFGGGSHMGGGSGGSAGGYGGAGGGGSLGFFSSSLAYNPYQSGAAPMGCYPGGGGGAQMAGSRRDTDAGEGAEEPRTPPEAPQGEPQALDTLQRAREYNARLFGLAQRSARALLDYGVTADARALLAGQRHLLMAQDENGDTPLHLAIIHGQTGVIEQIAHVIYHAQYLGVINLTNHLHQTPLHLAVITGQTRVVSFLLQVGADPTLLDRHGDSALHLALRAGAAAPELLQALLRSGAHAVPQILHMPDFEGLYPVHLAVHARSPECLDLLVDCGAEVEAPERQGGRTALHLATEMEELGLVTHLVTKLHANVNARTFAGNTPLHLAAGLGSPTLTRLLLKAGADIHAENEEPLCPLPSPSTSGSDSDSEGPERDTQRNFRGHTPLDLTCSTKVKTLLLNAAQNTTEPPLAPPSPAGPGLSLGDAALQNLEQLLDGPEAQGSWAELAERLGLRSLVDTYRKTPSPSGSLLRSYKLAGGDLVGLLEALSDMGLHEGVRLLKGPETRDKLPSTEVKEDSAYGSQSVEQEAEKLCPPPEPPGGLCHGHPQPQVH
binding [1]: binds

B4: p52 (human) (protein, UniProt Q00653)
chain: MESCYNPGLDGIIEYDDFKLNSSIVEPKEPAPETADGPYLVIVEQPKQRGFRFRYGCEGPSHGGLPGASSEKGRKTYPTVKICNYEGPAKIEVDLVTHSDPPRAHAHSLVGKQCSELGICAVSVGPKDMTAQFNNLGVLHVTKKNMMGTMIQKLQRQRLRSRPQGLTEAEQRELEQEAKELKKVMDLSIVRLRFSAFLRASDGSFSLPLKPVISQPIHDSKSPGASNLKISRMDKTAGSVRGGDEVYLLCDKVQKDDIEVRFYEDDENGWQAFGDFSPTDVHKQYAIVFRTPPYHKMKIERPVTVFLQLKRKRGGDVSDSKQFTYYPLVEDKEEVQRKRRKALPTFSQPFGGGSHMGGGSGGAAGGYGGAGGGGSLGFFPSSLAYSPYQSGAGPMGCYPGGGGGAQMAATVPSRDSGEEAAEPSAPSRTPQCEPQAPEMLQRAREYNARLFGLA
binding [6]: binds
